Article PMC4974071
No constants are given. Whether binding was seen depends on the method and setting. Binding seen in cells or lysates may run through a third protein. Some results given as binding are weak or reduced against the parent protein; the word gives no strength.

Target: T1, BCL11A-S (short isoform of BCL11A), wild-type (human) (UniProt Q9H165)
T1 sequence: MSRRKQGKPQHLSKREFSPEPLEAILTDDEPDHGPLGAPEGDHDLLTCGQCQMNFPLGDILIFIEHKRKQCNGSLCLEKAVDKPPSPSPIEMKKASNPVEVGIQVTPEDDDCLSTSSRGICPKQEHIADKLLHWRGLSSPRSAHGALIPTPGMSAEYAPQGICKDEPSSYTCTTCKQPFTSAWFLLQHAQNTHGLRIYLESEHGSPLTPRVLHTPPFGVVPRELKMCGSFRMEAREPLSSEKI
Experiment: FRET or BRET; BRET in live HEK293 cells co-transfected with 6 fmol Renilla luciferase fusion (donor) and 6 fmol YFP fusion (acceptor) plasmid, 48 hr, then Enduren 60 uM for 4 hr; mean corrected BRET ratios; nuclear-targeted luciferase or YFP as controls

B1: BCL11A-S (short isoform of BCL11A), wild-type (protein, UniProt Q9H165-3 1-243)
chain: MSRRKQGKPQHLSKREFSPEPLEAILTDDEPDHGPLGAPEGDHDLLTCGQCQMNFPLGDILIFIEHKRKQCNGSLCLEKAVDKPPSPSPIEMKKASNPVEVGIQVTPEDDDCLSTSSRGICPKQEHIADKLLHWRGLSSPRSAHGALIPTPGMSAEYAPQGICKDEPSSYTCTTCKQPFTSAWFLLQHAQNTHGLRIYLESEHGSPLTPRVLHTPPFGVVPRELKMCGSFRMEAREPLSSEKI
binding: binds
